Substitutions are numbered along the chain they refer to. These are yes or no findings as the source states them, for the method shown. In cells and extracts the contact can be indirect. These calls come from enrichment with a bait or labelling near it, and not all partners need be listed. Where a sequence is shown, tags or fusion partners need not be part of it.
Key:
Assay in all cases: affinity purification with mass spectrometry; GFP pulldown with GFP Tag Immunomagnetic Beads from lysates of HEK-293 Flp-In T-REx cells expressing EGFP, EGFP-MAB21L1 or mutant EGFP-MAB21L1 after 12 hrs of 1 μg/ml tetracycline; three biological replicates; MaxQuant
[1] = molecular target: T1, GFP-tagged MAB21L1 Arg51Gln (human) (UniProt Q13394)
T1 sequence: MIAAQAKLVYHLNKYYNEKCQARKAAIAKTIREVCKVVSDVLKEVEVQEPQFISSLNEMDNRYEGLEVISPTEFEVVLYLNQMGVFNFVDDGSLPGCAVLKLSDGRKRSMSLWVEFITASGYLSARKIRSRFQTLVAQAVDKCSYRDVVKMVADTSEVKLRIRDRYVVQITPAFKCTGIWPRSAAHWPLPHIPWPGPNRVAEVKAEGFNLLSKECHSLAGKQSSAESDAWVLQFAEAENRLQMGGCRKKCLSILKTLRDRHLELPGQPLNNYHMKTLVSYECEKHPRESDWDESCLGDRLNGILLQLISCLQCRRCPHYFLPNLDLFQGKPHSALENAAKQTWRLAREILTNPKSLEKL

[2] = molecular target: T2, GFP-tagged wild-type MAB21L1 (human) (UniProt Q13394)
T2 sequence: T1 sequence with Q51R

[3] = molecular target: T3, GFP-tagged MAB21L1 Arg51Leu (human) (UniProt Q13394)
T3 sequence: T1 sequence with Q51L

Measured: binding

B1: RLIM (protein, UniProt Q9NVW2 1-624)
chain: MENSDSNDKGSGDQSAAQRRSQMDRLDREEAFYQFVNNLSEEDYRLMRDNNLLGTPGESTEEELLRRLQQIKEGPPPQNSDENRGGDSSDDVSNGDSIIDWLNSVRQTGNTTRSGQRGNQSWRAVSRTNPNSGDFRFSLEINVNRNNGSQNSENENEPSARRSSGENVENNSQRQVENPRSESTSARPSRSERNSTEALTEVPPTRGQRRARSRSPDHRRTRARAERSRSPLHPMSEIPRRSHHSISSQTFEHPLVNETEGSSRTRHHVTLRQQISGPELLSRGLFAASGTRNASQGAGSSDTAASGESTGSGQRPPTIVLDLQVRRVRPGEYRQRDSIASRTRSRSQTPNNTVTYESERGGFRRTFSRSERAGVRTYVSTIRIPIRRILNTGLSETTSVAIQTMLRQIMTGFGELSYFMYSDSDSEPTGSVSNRNMERAESRSGRGGSGGGSSSGSSSSSSSSSSSSSSSSSSSSPSSSSGGESSETSSDLFEGSNEGSSSSGSSGARREGRHRAPVTFDESGSLPFLSLAQFFLLNEDDDDQPRGLTKEQIDNLAMRSFGENDALKTCSVCITEYTEGNKLRKLPCSHEYHVHCIDRWLSENSTCPICRRAVLASGNRESVV
binds: all assays above

B2: UBA2 (protein, UniProt Q9UBT2 1-640)
chain: MALSRGLPRELAEAVAGGRVLVVGAGGIGCELLKNLVLTGFSHIDLIDLDTIDVSNLNRQFLFQKKHVGRSKAQVAKESVLQFYPKANIVAYHDSIMNPDYNVEFFRQFILVMNALDNRAARNHVNRMCLAADVPLIESGTAGYLGQVTTIKKGVTECYECHPKPTQRTFPGCTIRNTPSEPIHCIVWAKYLFNQLFGEEDADQEVSPDRADPEAAWEPTEAEARARASNEDGDIKRISTKEWAKSTGYDPVKLFTKLFKDDIRYLLTMDKLWRKRKPPVPLDWAEVQSQGEETNASDQQNEPQLGLKDQQVLDVKSYARLFSKSIETLRVHLAEKGDGAELIWDKDDPSAMDFVTSAANLRMHIFSMNMKSRFDIKSMAGNIIPAIATTNAVIAGLIVLEGLKILSGKIDQCRTIFLNKQPNPRKKLLVPCALDPPNPNCYVCASKPEVTVRLNVHKVTVLTLQDKIVKEKFAMVAPDVQIEDGKGTILISSEEGETEANNHKKLSEFGIRNGSRLQADDFLQDYTLLINILHSEDLGKDVEFEVVGDAPEKVGPKQAEDAAKSITNGSDDGAQPSTSTAQEQDDVLIVDSDEEDSSNNADVSEEERSRKRKLDEKENLSAKRSRIEQKEELDDVIALD
binds: all assays above

B3: CDC42EP1 (protein, UniProt Q00587 1-391)
chain: MPGPQGGRGAATMSLGKLSPVGWVSSSQGKRRLTADMISHPLGDFRHTMHVGRGGDVFGDTSFLSNHGGSSGSTHRSPRSFLAKKLQLVRRVGAPPRRMASPPAPSPAPPAISPIIKNAISLPQLNQAAYDSLVVGKLSFDSSPTSSTDGHSSYGLDSGFCTISRLPRSEKPHDRDRDGSFPSEPGLRRSDSLLSFRLDLDLGPSLLSELLGVMSLPEAPAAETPAPAANPPAPTANPTGPAANPPATTANPPAPAANPSAPAATPTGPAANPPAPAASSTPHGHCPNGVTAGLGPVAEVKSSPVGGGPRGPAGPALGRHWGAGWDGGHHYPEMDARQERVEVLPQARASWESLDEEWRAPQAGSRTPVPSTVQANTFEFADAEEDDEVKV
binds: all assays above

B4: MEIS1 (protein, UniProt O00470 1-390)
chain: MAQRYDDLPHYGGMDGVGIPSTMYGDPHAARSMQPVHHLNHGPPLHSHQYPHTAHTNAMAPSMGSSVNDALKRDKDAIYGHPLFPLLALIFEKCELATCTPREPGVAGGDVCSSESFNEDIAVFAKQIRAEKPLFSSNPELDNLMIQAIQVLRFHLLELEKVHELCDNFCHRYISCLKGKMPIDLVIDDREGGSKSDSEDITRSANLTDQPSWNRDHDDTASTRSGGTPGPSSGGHTSHSGDNSSEQGDGLDNSVASPSTGDDDDPDKDKKRHKKRGIFPKVATNIMRAWLFQHLTHPYPSEEQKKQLAQDTGLTILQVNNWFINARRRIVQPMIDQSNRAVSQGTPYNPDGQPMGGFVMDGQQHMGIRAPGPMSGMGMNMGMEGQWHYM
binds: all assays above

B5: GARS (protein, UniProt P41250 37-739)
chain: SAASCPPISLPAAASRSSMDGAGAEEVLAPLRLAVRQQGDLVRKLKEDKAPQVDVDKAVAELKARKRVLEAKELALQPKDDIVDRAKMEDTLKRRFFYDQAFAIYGGVSGLYDFGPVGCALKNNIIQTWRQHFIQEEQILEIDCTMLTPEPVLKTSGHVDKFADFMVKDVKNGECFRADHLLKAHLQKLMSDKKCSVEKKSEMESVLAQLDNYGQQELADLFVNYNVKSPITGNDLSPPVSFNLMFKTFIGPGGNMPGYLRPETAQGIFLNFKRLLEFNQGKLPFAAAQIGNSFRNEISPRSGLIRVREFTMAEIEHFVDPSEKDHPKFQNVADLHLYLYSAKAQVSGQSARKMRLGDAVEQGVINNTVLGYFIGRIYLYLTKVGISPDKLRFRQHMENEMAHYACDCWDAESKTSYGWIEIVGCADRSCYDLSCHARATKVPLVAEKPLKEPKTVNVVQFEPSKGAIGKAYKKDAKLVMEYLAICDECYITEMEMLLNEKGEFTIETEGKTFQLTKDMINVKRFQKTLYVEEVVPNVIEPSFGLGRIMYTVFEHTFHVREGDEQRTFFSFPAVVAPFKCSVLPLSQNQEFMPFVKELSEALTRHGVSHKVDDSSGSIGRRYARTDEIGVAFGVTIDFDTVNKTPHTATLRDRDSMRQIRAEISELPSIVQDLANGNITWADVEARYPLFEGQETGKKETIEE
binds: all assays above

B6: PRPF4 (protein, UniProt O43172 1-522)
chain: MASSRASSTQATKTKAPDDLVAPVVKKPHIYYGSLEEKERERLAKGESGILGKDGLKAGIEAGNINITSGEVFEIEEHISERQAEVLAEFERRKRARQINVSTDDSEVKACLRALGEPITLFGEGPAERRERLRNILSVVGTDALKKTKKDDEKSKKSKEEYQQTWYHEGPNSLKVARLWIANYSLPRAMKRLEEARLHKEIPETTRTSQMQELHKSLRSLNNFCSQIGDDRPISYCHFSPNSKMLATACWSGLCKLWSVPDCNLLHTLRGHNTNVGAIVFHPKSTVSLDPKDVNLASCAADGSVKLWSLDSDEPVADIEGHTVRVARVMWHPSGRFLGTTCYDRSWRLWDLEAQEEILHQEGHSMGVYDIAFHQDGSLAGTGGLDAFGRVWDLRTGRCIMFLEGHLKEIYGINFSPNGYHIATGSGDNTCKVWDLRQRRCVYTIPAHQNLVTGVKFEPIHGNFLLTGAYDNTAKIWTHPGWSPLKTLAGHEGKVMGLDISSDGQLIATCSYDRTFKLWMAE
binds: all assays above

B7: PPP5C (protein, UniProt P53041 1-499)
chain: MAMAEGERTECAEPPRDEPPADGALKRAEELKTQANDYFKAKDYENAIKFYSQAIELNPSNAIYYGNRSLAYLRTECYGYALGDATRAIELDKKYIKGYYRRAASNMALGKFRAALRDYETVVKVKPHDKDAKMKYQECNKIVKQKAFERAIAGDEHKRSVVDSLDIESMTIEDEYSGPKLEDGKVTISFMKELMQWYKDQKKLHRKCAYQILVQVKEVLSKLSTLVETTLKETEKITVCGDTHGQFYDLLNIFELNGLPSETNPYIFNGDFVDRGSFSVEVILTLFGFKLLYPDHFHLLRGNHETDNMNQIYGFEGEVKAKYTAQMYELFSEVFEWLPLAQCINGKVLIMHGGLFSEDGVTLDDIRKIERNRQPPDSGPMCDLLWSDPQPQNGRSISKRGVSCQFGPDVTKAFLEENNLDYIIRSHEVKAEGYEVAHGGRCVTVFSAPNYCDQMGNKASYIHLQGSDLRPQFHQFTAVPHPNVKPMAYANTLLQLGMM
binds: all assays above

Reference: paper PMC9681113
